From patent publication US20210038547A1, “NEW USES AND APPLICATIONS OF DICARBOXYLIC ACIDS” (JEMYLL LIMITED, priority 2017, published 2021)

System: oat
Test: Hydroponic oat grown with C12 in the water medium: grain composition
Protocol: Hydroponic barley and oat grass was growth in fodder sprouting chambers at 21.5 to 23.5° C., with humidity of 65±5% and water temperature between 20° and 22° C. Grains were soaked in water until fully saturated, then drained and placed in trays or troughs, to facilitate sprouting, for 5 to 8 days. The grains were kept moist during this period. Grains were initially washed with a sterilizing solution to help minimize the risk of mold. Grass were provided with […] from day 3. C12 (0.1% as acid, 14.9% as potassium salt, 60% as sodium salt, and 25% as calcium salt) was added to the water medium in different concentrations, varying from 0%, to 2.5%, 5%, 10%, 15% and 20%. We measured grain composition at 10 g C12 in 1 L of water.

`O=C(O)CCCCCCCCCCC(=O)O` [C12, dodecanedioic acid] was tested, and the C12% (content in oat grain, 10 g C12/L of water (10% C12)) was 3.12 ± 0.47% and the “C12 in the water at which the concentration of C12 in oat grains plateaus” value (increasing C12 in irrigation water, FIG. 4) was 10 g/L.
